{"source": "PubChem BioAssay AID2417", "about": "(National Center for Advancing Translational Sciences (NCATS), 2010)", "note": "Screen size: about 140,000 compounds; about 4,300 (3.1%) were called active. The shares of active, inactive and inconclusive entries below differ from those in the screen.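 The calls were made as follows: active = readout at or below -70, meaning at least 70% loss of cells showing the perinucleolar compartment, a nuclear body marking cancer cells; inconclusive = readout between -30 and a set limit; inactive = the rest.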", "data": [{"test": "High Content Assay for Compounds that inhibit the Assembly of the Perinucleolar Compartment;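 also: plate controls were DMSO wells for no effect and camptothecin positive control wells for full effect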", "settings": "PC3M PTB-GFP, PNC prevalence imaging, 16 h; at 10 µM; active compounds read low", "procedure,_shortened": "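Read-out is percentage of cells bearing a perinucleolar compartment, from automated 20x imaging of fixed, Hoechst-stained PC3M PTB-GFP cells. Cells were seeded 4 h, then exposed 16 h to compound (23 nl of library stock) in duplicate plates.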", "values": [{"molecule": "O=C(c1cc2c(s1)CCCC2)N1CCN(S(=O)(=O)c2ccccc2C(F)(F)F)CC1", "activity change (PNC), negative = inhibition": "inactive: -17.6%"}, {"molecule": "CC(=O)c1c(C)[nH]c(C(=O)COc2cc(C)cc(C)c2)c1C", "activity change (PNC), negative = inhibition": "inconclusive: -35.9%"}, {"molecule": "CCC(=O)N1CCCc2cc(S(=O)(=O)N3CCN(c4ccccc4F)CC3)ccc21", "activity change (PNC), negative = inhibition": "inactive: -11.7%"}, {"molecule": "CC(C)OC(=O)c1c(NS(=O)(=O)c2ccccc2)sc2c1CCCC2", "activity change (PNC), negative = inhibition": "inconclusive: -37.9%"}, {"molecule": "Cc1ccc(Cn2cc(SCC(=O)Nc3nccs3)c3ccccc32)cc1", "activity change (PNC), negative = inhibition": "inconclusive: -67.5%"}, {"molecule": "CCOC(=O)N1CCN(c2c(N3CCc4ccccc43)c(=O)c2=O)CC1", "activity change (PNC), negative = inhibition": "inconclusive: -44.7%"}, {"molecule": "C=CCO/N=C(/C)c1c(O)c(CC)c(-c2ccccc2)n(-c2ccccc2)c1=O", "activity change (PNC), negative = inhibition": "inconclusive: -34%"}, {"molecule": "COc1ccc(C(c2nnnn2C2CCCCC2)N2CCN(c3ccccc3)CC2)cc1", "note": "(stereo unspecified)", "activity change (PNC), negative = inhibition": "inconclusive: -33.3%"}, {"molecule": "Cn1nnc2cc(C(=O)N3CCC(c4ccccc4)C3)ccc21", "note": "(stereo unspecified)", "activity change (PNC), negative = inhibition": "inconclusive: -78.3%"}, {"molecule": "c1ccc(-c2cc3nccc(-c4ccccn4)n3n2)cc1", "activity change (PNC), negative = inhibition": "inconclusive: -40.7%"}, {"molecule": "N#Cc1c(Nc2ccc(F)cc2)sc(C(=O)c2ccccc2)c1N", "activity change (PNC), negative = inhibition": "inconclusive: -53.6%"}, {"molecule": "COc1ccc(S(=O)(=O)N2CCCN(CC(=O)Nc3cc(NC(C)=O)ccc3OC)CC2)cc1", "activity change (PNC), negative = inhibition": "inconclusive: -31.3%"}, {"molecule": "COc1ccc(-n2c(SCC(=O)Nc3nccs3)nc3c(c2=O)SC(C)C3)cc1", "note": "(stereo unspecified)", "activity change (PNC), negative = inhibition": "inconclusive: -76.7%"}, {"molecule": "Cn1c(O)c(N=NC(=O)CNC(=O)c2ccco2)c2ccccc21", "activity change (PNC), negative = inhibition": "inactive: 12.6%"}, {"molecule": "Cc1nnc(SCCn2c(N3CC(C)CC(C)C3)nc3c2c(=O)[nH]c(=O)n3C)s1", "note": "(stereo unspecified)", "activity change (PNC), negative = inhibition": "inconclusive: -79.1%"}, {"molecule": "CN1CCN(C(=S)NC(=O)c2ccc(C(C)(C)C)cc2)CC1", "activity change (PNC), negative = inhibition": "inconclusive: -38.8%"}, {"molecule": "CN1C(=O)c2ccc(NC(=O)c3c(F)c(F)c(F)c(F)c3F)cc2C1=O", "activity change (PNC), negative = inhibition": "inconclusive: -53%"}, {"molecule": "CCOc1ccc(N2C(=O)c3ccccc3C2=O)cc1", "activity change (PNC), negative = inhibition": "inactive: 7.66%"}, {"molecule": "O=C(O)C1C(C(=O)Nc2ccc(Cl)cc2)C2C=CC1C21CC1", "note": "(stereo unspecified)", "activity change (PNC), negative = inhibition": "inconclusive: -39.3%"}, {"molecule": "CC(=O)N1CCC(N(CCN2CCOCC2)C(=S)Nc2c(C)cccc2C)CC1", "activity change (PNC), negative = inhibition": "inactive: 10%"}, {"molecule": "CCCC(=O)NCCc1cc2cc(C)c(C)cc2[nH]c1=O", "activity change (PNC), negative = inhibition": "inconclusive: -44.3%"}, {"molecule": "O=C1C(NS(=O)(=O)c2cccs2)=C(N2CCN(c3cccc(C(F)(F)F)c3)CC2)C(=O)c2ccccc21", "activity change (PNC), negative = inhibition": "inconclusive: -55.4%"}, {"molecule": "COc1ccc(C)cc1NC(=O)COC(=O)c1ccc(OCc2ccc(Cl)cc2Cl)c(OC)c1", "activity change (PNC), negative = inhibition": "inconclusive: -33.4%"}, {"molecule": "CCOC(=O)C1=C(C)Nc2ccccc2N=C1NC(=O)c1cccc(S(=O)(=O)NCc2ccccc2)c1", "activity change (PNC), negative = inhibition": "inconclusive: -67.9%"}, {"molecule": "COc1cc(C(c2nnnn2C(C)(C)C)N2CCN(c3nc4ccccc4s3)CC2)ccc1O", "note": "(stereo unspecified)", "activity change (PNC), negative = inhibition": "inconclusive: -36.6%"}, {"molecule": "CC(=O)c1ccc(NC(=O)c2cccs2)cc1", "activity change (PNC), negative = inhibition": "active: -111%"}, {"molecule": "CCC/C(O)=C1\\C(=O)CC(C)(C)CC1=Nc1ccc(OC)cc1OC", "activity change (PNC), negative = inhibition": "active: -139%"}, {"molecule": "CCOC(=O)c1ccc(NC(=O)CCOc2ccc(C)cc2)cc1", "activity change (PNC), negative = inhibition": "inconclusive: -66.1%"}, {"molecule": "CC/C(C)=N/NC(=S)NCc1ccco1", "activity change (PNC), negative = inhibition": "inconclusive: -32.7%"}, {"molecule": "CCCC(=O)Nc1sc2c(c1C#N)CCCC2", "activity change (PNC), negative = inhibition": "inconclusive: -43.9%"}, {"molecule": "N#CC1=C(N)SC(N)=C(C#N)C1c1cccc(Oc2ccccc2)c1", "activity change (PNC), negative = inhibition": "inconclusive: -31.7%"}, {"molecule": "Cc1ccc(Cn2ccc(NC(=O)C3C4CCC(C4)C3C(=O)O)n2)cc1", "note": "(stereo unspecified)", "activity change (PNC), negative = inhibition": "inconclusive: -36.8%"}, {"molecule": "N#Cc1c(NC(=O)CCC(=O)O)sc2c1CCCC2", "activity change (PNC), negative = inhibition": "inactive: 33.1%"}, {"molecule": "O=C(c1ccc([N+](=O)[O-])cc1)n1nc(-c2ccccc2)nc1NCc1ccc(F)cc1", "activity change (PNC), negative = inhibition": "inconclusive: -41.5%"}, {"molecule": "C=CCn1c(COc2ccccc2)nnc1SCC(=O)O", "activity change (PNC), negative = inhibition": "inconclusive: -30.7%"}, {"molecule": "COC(=O)c1ccccc1NC(=S)NC(=O)COc1ccccc1", "activity change (PNC), negative = inhibition": "inactive: 9.29%"}, {"molecule": "CS(=O)(=O)N1CCN(c2ccccc2NC(=O)c2ccc(-c3ccc(Cl)cc3Cl)o2)CC1", "activity change (PNC), negative = inhibition": "inconclusive: -38.5%"}, {"molecule": "CC/C(=C1/C(=O)CC(C)(C)C(C(=O)OC)C1=O)N1CCCC1", "note": "(stereo unspecified)", "activity change (PNC), negative = inhibition": "inactive: -14%"}, {"molecule": "O=C1c2ccccc2C(=O)N1CC(O)CNc1ccc(Br)cc1", "note": "(stereo unspecified)", "activity change (PNC), negative = inhibition": "inconclusive: -53.2%"}, {"molecule": "Cc1cc(NS(=O)(=O)c2ccc(NC(=O)C(C)N3C(=O)c4ccccc4C3=O)cc2)nc(C)n1", "note": "(stereo unspecified)", "activity change (PNC), negative = inhibition": "inconclusive: -63%"}, {"molecule": "COCC(C)n1c(-c2ccc3c(c2)NC(=O)CO3)csc1=Nc1ccc(OC(F)F)cc1", "note": "(stereo unspecified)", "activity change (PNC), negative = inhibition": "inactive: 15.5%"}, {"molecule": "CC(=O)Nc1cccc(NC(=O)CSc2ncc(-c3ccc(Cl)cc3)n2Cc2ccco2)c1", "activity change (PNC), negative = inhibition": "inactive: -16.7%"}, {"molecule": "O=C(OCC(=O)N1CCN(c2ccccc2)CC1)c1ccccn1", "activity change (PNC), negative = inhibition": "inactive: -5.53%"}, {"molecule": "Cc1ccc(Sc2ncccc2C(=O)O)cc1", "activity change (PNC), negative = inhibition": "inconclusive: -37.2%"}, {"molecule": "O=C1C2C(c3ccccc3)(C(=O)N1c1ccc(Cl)cc1)C2(c1ccccc1)c1ccccc1", "note": "(stereo unspecified)", "activity change (PNC), negative = inhibition": "inconclusive: -38.9%"}, {"molecule": "O=C(c1cccc(-c2nnc(-c3ccccc3)o2)c1)N1CCCCC1", "activity change (PNC), negative = inhibition": "inconclusive: -44.8%"}, {"molecule": "O=C(CCNc1ccc(Cl)cc1)c1cccs1", "activity change (PNC), negative = inhibition": "inconclusive: -45.5%"}, {"molecule": "CCOc1ccccc1OCC(=O)Nc1ccc(S(=O)(=O)N(C)C)cc1", "activity change (PNC), negative = inhibition": "active: -85.6%"}, {"molecule": "Cc1ccc(SCCNC(=S)Nc2ccccc2)cc1", "activity change (PNC), negative = inhibition": "inactive: 15.7%"}, {"molecule": "COc1ccc(NC(=O)c2ccc(=O)[nH]c2)cc1S(=O)(=O)N1CCCCC1", "activity change (PNC), negative = inhibition": "inactive: 15.7%"}, {"molecule": "CCC(Sc1ncccc1C(=O)O)C(=O)N1CCCC1", "note": "(stereo unspecified)", "activity change (PNC), negative = inhibition": "inconclusive: -35.8%"}, {"molecule": "CCOc1ccc(-c2[nH]nc3c2C(c2ccc(O)cc2)C(C#N)=C(N)O3)cc1", "note": "(stereo unspecified)", "activity change (PNC), negative = inhibition": "inconclusive: -59.2%"}, {"molecule": "C=CC[C@@H]1Cc2c(Br)ccc(Br)c2[C@@H](CC=C)N1", "activity change (PNC), negative = inhibition": "inconclusive: -37.6%"}, {"molecule": "CCSc1nnc(NC(=O)C(Cc2ccccc2)n2cccc2)s1", "note": "(stereo unspecified)", "activity change (PNC), negative = inhibition": "inconclusive: -43.7%"}, {"molecule": "O=C(NCc1cn2ccsc2n1)Nc1ccc(Cl)cc1", "activity change (PNC), negative = inhibition": "inconclusive: -37.3%"}, {"molecule": "COc1cc(C2Nn3c(nnc3-c3ccccc3OC)S2)ccc1O", "note": "(stereo unspecified)", "activity change (PNC), negative = inhibition": "inactive: -15.4%"}]}]}
